PubChem BioAssay AID2685 (National Center for Advancing Translational Sciences (NCATS), 2010)
The other results are listed elsewhere or left out. Further columns of the screen follow, without active or inactive calls. Compounds called inactive in the main read-out are mostly missing here. Words in brackets tell the shape of the fitted curve; partial curves, single points and poor fits give uncertain potencies.

Assay: qHTS Assay for Lipid Storage Modulators in Drosophila S3 Cells;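 as to cell number change: cells counted by Cell Tracker Red CMTPX staining in the red channel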
Conditions: BODIPY lipid droplet fluorescence, 18-24 h; for cell number change: measured here: cell count max response, cells fed with added oleic acid
In short: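 Laser-scanning cytometry quantifies lipid droplet accumulation (500–530 nm total intensity; droplet/cell object ratio) in oleic acid-fed (400 uM added) Drosophila S3 cells treated with a concentration series. 20 uM Triacsin C defined 100% inhibition.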

[1] = measured here: cell number channel AC50, cells fed with added oleic acid
[2] = measured here: lipid fluorescence (Fed channel) AC50, cells fed with added oleic acid

NC(N)=N/N=C/c1ccc(N2CCOCC2)cc1
cell number change: -2.85%
AC50 [1]: 6.51 µM [rising, single point]

COCCN1C(=O)NC(=O)/C(=C\c2ccc(Br)cc2)C1=O
cell number change: -27.4%

Cc1cnc[nH]1
cell number change: -17.4%
AC50 [2]: 9.2 µM [rising, single point]

CNC(=O)N(C)c1ccc(C(O)(C(=O)OC)C(F)(F)F)cc1 (stereo unspecified)
cell number change: 31.5%
AC50 [1]: 32.6 µM [rising, single point]

O=[N+]([O-])c1ccc(N2CCCC2)c(F)c1Br
cell number change: -59.5%
AC50 [1]: 18.4 µM [falling, single point]
AC50 [2]: 29.1 µM [falling, single point]

C/C=C(\C)C(=O)N[C@@H](c1ccccc1)[C@@H](O)C(=O)O[C@H]1C[C@@]2(O)[C@@H](OC(=O)c3ccccc3)C3[C@](C)(C(=O)[C@H](OC(C)=O)C(=C1C)C2(C)C)[C@@H](O)C[C@H]1OC[C@@]31OC(C)=O (stereo partly specified)
cell number change: -3.88%
AC50 [2]: 29.1 µM [falling, single point]

C=CCN1C(=O)NC(=O)/C(=C/c2cc3c4c(c2)CCCN4CCC3)C1=O
cell number change: -18.9%
AC50 [1]: 0.103 µM [falling, full curve, poor fit]

CNC(=O)Oc1ccc2c(c1)C(=O)c1ccccc1CO2
cell number change: -50.6%
AC50 [1]: 29.1 µM [falling, single point]

O=C(c1cccc([N+](=O)[O-])c1)C12CN3CN(CN(C3)C1)C2
cell number change: -41.1%
AC50 [1]: 3.66 µM [falling, partial curve, poor fit]
AC50 [2]: 0.82 µM [falling, full curve]

CCCCn1c(O)c(/C=C/C=Nc2ccccc2)c(=O)[nH]c1=O
cell number change: -30.2%
AC50 [1]: 29.1 µM [falling, single point]

CC1=CC(C)C(COC(N)=O)(COC(N)=O)C(C)C1 (stereo unspecified)
cell number change: -50.1%
AC50 [1]: 0.164 µM [falling, full curve, poor fit]
AC50 [2]: 0.0731 µM [falling, full curve, poor fit]

Nc1c(C(=O)NCc2ccco2)c2nc3ccccc3nc2n1Cc1ccccc1
cell number change: -57.5%
AC50 [1]: 25.9 µM [falling, single point]
AC50 [2]: 29.1 µM [falling, single point]

CN1CCC(N(C)c2ccc(C(N)=O)cc2[N+](=O)[O-])CC1
cell number change: -3.23%
AC50 [2]: 0.146 µM [falling, full curve, poor fit]

Cc1ccc2c(c1)C1CN(C)CCC1N2S(=O)(=O)c1ccccc1 (stereo unspecified)
cell number change: 63.6%
AC50 [1]: 5.8 µM [rising, full curve]

CCOC(=O)c1c(/N=C/c2c(O)n(-c3cccc(C)c3)c(=O)[nH]c2=O)sc2c1CCCC2
cell number change: 2.25%

Oc1ccc(C2NCc3ccccc3-n3cccc32)cc1Cl (stereo unspecified)
cell number change: -2.32%

C[C@]12CCC(=O)C=C1CC[C@@H]1C2[C@H](O)C[C@]2(C)C(=O)CCC12 (stereo partly specified)
cell number change: 15.3%
AC50 [1]: 6.51 µM [rising, partial curve, poor fit]
AC50 [2]: 6.51 µM [falling, single point]

O=C1CC(N2CCC(n3c(=O)[nH]c4ccccc43)CC2)C(=O)N1Cc1ccccc1 (stereo unspecified)
AC50 [2]: 0.103 µM [rising, full curve, poor fit]

c1ccc(C2N3CCCN23)cc1 (stereo unspecified)
cell number change: -55.5%
AC50 [1]: 6.51 µM [falling, partial curve]
AC50 [2]: 0.58 µM [falling, single point]

O=C(O)C1C2CCC(O2)C1C(=O)Nc1cccc(Br)c1 (stereo unspecified)
cell number change: 28.2%
AC50 [2]: 20.6 µM [rising, single point]

CC(C)C/C(=N/O)c1c[nH]c2ccccc12
AC50 [1]: 6.51 µM [falling, single point]
AC50 [2]: 6.51 µM [falling, single point]

COc1cccc(C(=O)N2CCC3(CC2)OCCO3)c1
cell number change: -11.8%
AC50 [2]: 0.0651 µM [falling, full curve, poor fit]

CCc1c(C)nc(N)nc1N1N=C1SCC#N
cell number change: 12.5%
AC50 [2]: 23.1 µM [rising, partial curve, poor fit]

O=C(Cn1nc(Cc2cccnc2)c2ccccc2c1=O)N1CCC2(CC1)OCCO2
AC50 [1]: 3.26 µM [rising, single point]
AC50 [2]: 4.11 µM [rising, single point]

COc1ccccc1N1CCN(Cc2ccccc2Cl)CC1
cell number change: -70.4%
AC50 [1]: 5.8 µM [falling, full curve]

Cc1cccc(-n2c(O)c(C=NCCN3CCCCC3)c(=O)[nH]c2=O)c1
cell number change: -20.6%
AC50 [1]: 0.651 µM [rising, single point]

O=P1(NCCCn2cc[n+](Cc3nc4ccccc4[nH]3)c2)C=C(c2ccccc2)OC(c2ccccc2)=C1
cell number change: 19%
AC50 [1]: 6.51 µM [rising, partial curve]

C[C@]12CCC3=C4CCC(=O)C=C4CC[C@H]3C1CC[C@@H]2O (stereo partly specified)
cell number change: -83.8%
AC50 [1]: 18.4 µM [falling, single point]
AC50 [2]: 20.6 µM [falling, single point]

CN1CCN(c2ccc(Cl)cc2N)CC1
cell number change: -9.19%
AC50 [1]: 5.17 µM [falling, single point]

CCCNC(=O)N1[C@H]2CC[C@@H]1C(C(=O)OC)=C(c1ccc(F)cc1F)C2
cell number change: 11.3%
AC50 [2]: 29.1 µM [rising, single point]

CCOC(=O)C(O)(c1ccc(NC(=S)NC(=O)c2ccc(Cl)cc2Cl)c(C)c1)C(F)(F)F (stereo unspecified)
cell number change: -5.49%
AC50 [2]: 29.1 µM [falling, single point]

CC1CN=C(NCc2ccc(F)cc2)S1 (stereo unspecified)
cell number change: 101%
AC50 [1]: 23.1 µM [rising, single point]

COc1ccc(C2N3CC(C)(C)CN23)cc1 (stereo unspecified)
cell number change: 9.99%
AC50 [2]: 5.17 µM [rising, single point]

CN1CCN(c2nc3ccccc3c(=O)n2-c2ccccc2)CC1
cell number change: -31%
AC50 [1]: 3.66 µM [falling, full curve]
AC50 [2]: 29.1 µM [falling, single point]

Cc1ccccc1N1CCN(C2CCCN(C(=O)Cc3c(C)noc3C)C2)CC1 (stereo unspecified)
cell number change: 16.2%
AC50 [1]: 2.91 µM [rising, partial curve, poor fit]

O=C(CN1CC=C(c2ccccc2)CC1)NC(=O)NCc1ccco1
cell number change: -1.82%
AC50 [2]: 1.3 µM [rising, partial curve, poor fit]
